Assay: Plasma levels of anagrelide and metabolite after clinical oral dose
Format: in vivo, human
Details: 1 mg clinical dose

Compound | peak plasma level relative to in vitro PDE III inhibitory IC50 | peak plasma level as share of in vitro PDEIII inhibitory IC50
O=C1NC2=Nc3ccc(Cl)c(Cl)c3CN2C1O (centres unmarked) [3-hydroxy anagrelide] | ~40 fold | 
O=C1CN2Cc3c(ccc(Cl)c3Cl)N=C2N1 [anagrelide] |  | 50%

— patent US11324746B2, “Use of anagrelide for treating cancer” (Arovella Therapeutics Limited, priority 2014, dated 2022)
